Publication PMC11166458, “Caskin2 is a novel talin- and Abi1-binding protein that promotes cell motility” (Journal of Cell Science, 2024)

Sequences of proteins named here, by UniProt entry; tags and fusion partners are left off.
UniProt Q8WXE0: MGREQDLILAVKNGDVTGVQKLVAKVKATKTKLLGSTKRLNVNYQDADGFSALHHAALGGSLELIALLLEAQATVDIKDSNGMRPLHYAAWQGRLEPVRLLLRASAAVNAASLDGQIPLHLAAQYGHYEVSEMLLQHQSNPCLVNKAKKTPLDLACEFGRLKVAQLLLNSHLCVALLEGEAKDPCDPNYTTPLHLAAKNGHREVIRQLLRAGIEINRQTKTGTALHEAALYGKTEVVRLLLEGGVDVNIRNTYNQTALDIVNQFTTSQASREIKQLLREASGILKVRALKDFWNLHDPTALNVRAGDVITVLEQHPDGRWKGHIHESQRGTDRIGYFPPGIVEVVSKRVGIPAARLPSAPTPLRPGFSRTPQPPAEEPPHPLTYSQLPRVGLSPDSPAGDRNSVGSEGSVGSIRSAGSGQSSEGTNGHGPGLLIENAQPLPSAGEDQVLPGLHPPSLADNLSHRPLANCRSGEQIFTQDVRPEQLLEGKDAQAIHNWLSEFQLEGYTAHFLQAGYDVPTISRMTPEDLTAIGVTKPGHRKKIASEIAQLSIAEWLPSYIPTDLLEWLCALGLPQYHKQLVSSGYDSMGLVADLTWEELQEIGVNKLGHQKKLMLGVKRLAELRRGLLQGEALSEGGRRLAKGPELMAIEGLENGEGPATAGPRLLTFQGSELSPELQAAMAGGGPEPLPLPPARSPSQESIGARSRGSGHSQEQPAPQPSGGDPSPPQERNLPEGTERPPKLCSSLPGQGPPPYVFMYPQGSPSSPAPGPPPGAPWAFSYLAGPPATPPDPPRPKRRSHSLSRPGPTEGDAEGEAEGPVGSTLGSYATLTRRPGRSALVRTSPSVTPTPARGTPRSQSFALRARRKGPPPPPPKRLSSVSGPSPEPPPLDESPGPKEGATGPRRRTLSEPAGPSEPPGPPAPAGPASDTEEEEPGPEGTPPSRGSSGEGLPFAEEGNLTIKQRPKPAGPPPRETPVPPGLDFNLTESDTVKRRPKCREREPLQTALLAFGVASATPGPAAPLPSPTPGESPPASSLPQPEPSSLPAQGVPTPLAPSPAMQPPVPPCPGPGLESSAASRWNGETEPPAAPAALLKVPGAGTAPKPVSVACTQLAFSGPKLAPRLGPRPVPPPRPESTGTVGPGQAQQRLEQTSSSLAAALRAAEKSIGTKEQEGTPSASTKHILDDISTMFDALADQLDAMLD

B1: Ywhag (endogenous, GE11 cells) (protein, UniProt P61982 1-247)
chain: MVDREQLVQKARLAEQAERYDDMAAAMKNVTELNEPLSNEERNLLSVAYKNVVGARRSSWRVISSIEQKTSADGNEKKIEMVRAYREKIEKELEAVCQDVLSLLDNYLIKNCSETQYESKVFYLKMKGDYYRYLAEVATGEKRATVVESSEKAYSEAHEISKEHMQPTHPIRLGLALNYSVFYYEIQNAPEQACHLAKTAFDDAIAELDTLNEDSYKDSTLIMQLLRDNLTLWTSDQQDDDGGEGNN
B2: striatin (endogenous, GE11 cells) (protein, UniProt O55106 1-780)
chain: MDEQAGPGVFFSNNHPGAGGAKGLGPLAEAAAAGDGAAAAGAARAQYSLPGILHFLQHEWARFEVERAQWEVERAELQAQIAFLQGERKGQENLKKDLVRRIKMLEYALKQERAKYHKLKYGTELNQGDMKPPSYDSDEGNETEVQPQQNSQLMWKQGRQLLRQYLQEVGYTDTILDVKSKRVRALLGFSSDVTDREDDKNQDSVINGTEAEVKETAMIGKSELTDSASVLDNFKFLESAAADVSDEDEDEDTDGRAKSVIDTSTIVRKKALPDTSEDRDTKEALKEFDFLVTSEEGDNESRSAGDGTDWEKEDQCLTPEAWNVDQGVISKLKEQYKKERKGKKGVKRPNRSKLQDMLANLRDVDELPSLQPSVGSPSRPSSSRLPEQELSRADEVEALTFPPSSGKSFIMGADEALESELGLGELAGLTVANEADSLAYDIANNKDALRKTWNPKFTLRSHFDGIRALAFHPIEPVLITASEDHTLKMWNLQKTAPAKKSTSLDVEPIYTFRAHKGPVLCVVMSSNGEQCYSGGTDGRIQSWSTTNPNVDPYDAYDPSVLRGPLLGHTDAVWGLAYSAAHQRLLSCSADGTLRLWNTTEVAPALSVFNDNQELGIPASVDLVSSDPSHMVASFSKGYTSIFNMETQQRVLTLESNVDSTSSSSCQINRVISHPTLPISITAHEDRHIKFYDNNTGKLIHSMVAHLEAVTSLAVDPNGLYLMSGSHDCSIRLWNLESKTCIQEFTAHRKKFEESIHDVAFHPSKCYIASAGADALAKVFV
B3: striatin-3 (endogenous, GE11 cells) (protein, UniProt Q9ERG2 1-796)
chain: MDELAGGGGGGQGMAAPPRPQQGPGGNLSLPPGANGAPGGGGPPAAEAAGPPAGPELSRPQQYTIPGILHYIQHEWARFEMERAHWEVERAELQARIAFLQGERKGQENLKKDLVRRIKMLEYALKQERAKYHKLKYGTELNQGDLKMPTFESEETKDVEAPPAPQNSQLTWKQGRQLLRQYLQEVGYTDTILDVRSQRVRSLLGLSNSEPNGSVEAKNLEQILNGGESPKQKGQEIKRPPGDVLETFNFLENADDSDEEENDMIEGIPEGKDKLRIHKHKIGNEGLAADLTDDPDTEEALKEFDFLVTAEDGEGAGEARSSGDGTEWDKDDLSPTAEVWDVDQGLISKLKEQYKKERKGKKGVKRVNRTNLCDMITDLGDDELPHIPSGIINQSRSASTRMADHEGARAEEAEPITFPSGGGKSFIMGSDDVLLSVLGLGDLADLTVTNDADYSYDLPANKDAFRKTWNPKYTLRSHFDGVRALAFHPVEPVLVTASEDHTLKLWNLQKTVPAKKSASLDVEPIYTFRAHIGPVLSLAISSNGEQCFSGGIDATIQWWNMPSPNVDPYDTYESNVLAGTLVAHTDAVWGLAYSGIKNQLLSCSADGTIRLWNPQEKLPCVCTYNGDKEHGIPTSVDFIGCDPAHMVTSFNTGSAVIYDLETSQSLVMLSSQVDSGLQSSNHINRVVSHPTLPVTITAHEDRHIKFFDNKTGKMIHSMVAHLDAVTSLAVDPNGIYLMSGSHDCSIRLWNLDSKTCVQEITAHRKKLDESIYDVAFHPSKAYIASAGADALAKVFV

Target: Caskin2-FL–GFP (human) (UniProt Q8WXE0)
Assay: affinity purification with mass spectrometry; GFP-Trap of Caskin2-FL–GFP (GFP as control) stably expressed in GE11tetONβ1 cells; label-free quantitation

binding | Binder
binds | B1
binds | B2
binds | B3

These are yes or no findings as the source states them, for the method shown. Binding seen in cells or lysates may run through a third protein. A yes stands for co-enrichment or nearness to the bait. Other partners may have been found.
